Reference: patent publication US6379965B1, “Multifunctional complexes for gene transfer into cells comprising a nucleic acid bound to a polyamine and having an endosome disruption agent” (American Home Products Corporation, priority 1994, dated 2002)
Some of these results come from one statement about several compounds together.

System: Human hepatocellular carcinoma HuH7 cells
Assay: Transfection of adherent HuH7 cells in culture with pCMVβ plasmid, β-galactosidase activity
Format: cell-based
Conditions: HuH7 in 6 well plates, treated similarly with the same two-component mixture and pCMVβ plasmid
Protocol: Human hepatocellular carcinoma HuH7 cells were grown and seeded into a 96 well plate with 1-2×10^4 cells in 100 μL of minimal essential media α, modification with 10% serum. The plates were incubated in a 37° CO2 incubator until the cells were 60-80% confluent (approximately 24 hrs). The media was removed and the cells washed once with Optimem® (serum free media). Optimem® (100 μL) containing 0.5 μg of pCMVβ plasmid (from Clonetech, No. 6177-1), 0.5 μg of N^4-(5-[N^2,N^6-bis(β-3′-propionyl galactosyl-β1-4-thioglucoside)lysyl-N^6-(β-3′-propionyl galactosyl-β1-4-thioglucoside)lysyl]aminopentyl)-spermidine and 2.5 μg of N^4-(5-cholestene-3′β-oxycarbonyl)-aminopentyl)spermidine was added to the cells. The cells were incubated with the mixture for 4 hrs in a 37° CO2 incubator; thereafter 100 μL of media containing 20% serum was added and the incubation continued for an additional 20 hrs. Cells lysed with 0.5% NP-40 in 140 mM NaCl, 10 mM tris, 1.5 mM MgCl2 were assayed for β-galactosidase activity using o-nitrophenyl β-D-galactopyranoside, and gave A405=1.35 after 30 min. Cells grown in 6 well plates (25 mm diameter) and treated similarly were fixed with 2% paraformaldehyde and assayed for β-galactosidase activity using 5-bromo-4-chloro-3-indolyl β-D-galactopyranoside (J. Sambrook, et al., Molecular Cloning: A Laboratory Manual, Cold Spring Harbor, 1989).

4-[(N^2-[N^2,N^6-bis(3-[4-O(β-D-galactopyranosyl)-β-D-glucopyranosylthio]propionyl)lysyl]N^6-(3-[4-O-(β-D-galactopyranosyl)-β-D-glucopyranosylthio]-propionyl)lysinamido)pentyl]-1,8-diamino-4-azaoctane, acetate salt
cells transfected (5-bromo-4-chloro-3-indolyl β-D-galactopyranoside, light microscopy): 5-10%
